# Source: PubChem BioAssay AID588590 (National Center for Advancing Translational Sciences (NCATS), 2011)
# Protein sequences, listed by entry. Tags and fused reporters are not part of them. Lines headed by an entry give the natural chain unless they say otherwise; changes in a name come on top.
# UniProt Q9UNA4: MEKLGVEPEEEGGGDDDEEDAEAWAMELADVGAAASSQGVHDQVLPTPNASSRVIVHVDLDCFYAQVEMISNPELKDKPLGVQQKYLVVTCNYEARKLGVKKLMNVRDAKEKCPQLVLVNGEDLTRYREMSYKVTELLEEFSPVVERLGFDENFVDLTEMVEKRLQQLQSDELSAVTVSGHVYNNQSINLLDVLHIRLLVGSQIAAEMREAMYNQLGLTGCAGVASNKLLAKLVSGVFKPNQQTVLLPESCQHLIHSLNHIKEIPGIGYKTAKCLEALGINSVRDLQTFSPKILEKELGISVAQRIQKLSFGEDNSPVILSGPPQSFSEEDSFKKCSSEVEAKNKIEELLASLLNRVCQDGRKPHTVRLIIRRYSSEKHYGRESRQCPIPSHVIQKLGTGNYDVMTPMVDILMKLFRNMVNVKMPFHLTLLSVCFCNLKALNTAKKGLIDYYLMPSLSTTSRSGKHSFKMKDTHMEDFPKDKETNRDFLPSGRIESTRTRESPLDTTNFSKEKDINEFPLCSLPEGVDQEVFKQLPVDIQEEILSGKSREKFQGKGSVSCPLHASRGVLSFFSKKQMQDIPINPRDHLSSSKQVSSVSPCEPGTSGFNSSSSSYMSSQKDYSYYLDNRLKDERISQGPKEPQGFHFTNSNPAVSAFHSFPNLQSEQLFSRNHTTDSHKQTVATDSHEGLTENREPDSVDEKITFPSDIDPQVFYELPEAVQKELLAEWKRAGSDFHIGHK
# Hit rate of the full screen: of about 390,000 compounds, about 4,000 (1%) were called active. This list was built around the results that the source calls inconclusive (neither active nor inactive); the mix of calls is not that of the screen. Calls come from the whole dose curve; as a rule, active = well fitted inhibition curve with a large enough effect; inconclusive = small, poorly fitted or top-dose-only effect, or another doubt; inactive = no such curve, though single readings can be large or run the other way. A potency beside an inconclusive call is a rough fit, not a confirmed value.
# Biological target: DNA polymerase iota (Homo sapiens) (UniProt Q9UNA4)
# Test: qHTS for Inhibitors of Polymerase Iota
# Conditions: Pol iota fluorescent replication assay, 10 min; series mostly up to 115 µM; activity, negative = inhibition: at the top concentration
# Summary of the method: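 Pol iota at 10 nM preincubated 15 min with compounds at room temperature; reaction started with fluorescent substrate, 50 nM final. Fluorescence read kinetically at 0 and 10 min; buffer-only wells as negative control.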
# Potency is the fitted concentration of half-maximal effect.
Structure (SMILES),Potency,"activity, negative = inhibition"
O=C(O)C1CSC(c2ccco2)N1 (configuration not stated),"inconclusive: 1.58 µM [inhibitor, full curve, poor fit]",
Cc1ccc(OCC(=O)N2CCN(c3ccc([N+](=O)[O-])c(N4CCOCC4)c3)CC2)cc1,"inconclusive: 56.2 µM [inhibitor, partial curve, poor fit]",
CCN(CC(=O)Nc1ccc(OC)cc1)C(=O)c1ccc([N+](=O)[O-])cc1,,inactive: 19.3%
CCCn1nnc(NC(=S)NC(=O)/C=C/c2ccco2)n1,"inconclusive: 15.8 µM [inhibitor, full curve, poor fit]",
COc1ccc(CC(=O)NCc2nnc(SCC(=O)Nc3ncc(C)s3)n2C)cc1,"inconclusive: 79.4 µM [inhibitor, single point]",
COc1ccc(C(=O)CSc2nnc(CNC(=O)c3ccccc3F)n2C)cc1OC,,inactive: 17.8%
CCOc1ccc(S(=O)(=O)Nc2ccc(C(=O)NN)cc2)cc1,,inactive: -24.2%
CCOc1c(Br)cc(C(N)=O)cc1OC,"inconclusive: 12.6 µM [inhibitor, partial curve, poor fit]",
O=Cc1c[nH]c2ccc(OCc3ccccc3)cc12,"inconclusive: 100 µM [inhibitor, single point]",
COc1ccc(/C=N/NC(=O)c2cccc(C(=O)N/N=C/c3ccc(OC)c(OC)c3)n2)cc1OC,,inactive: -10.3%
CC1=CCC2C(=O)N(c3nc4ccccc4n3C)C(=O)C2C1 (configuration not stated),"inconclusive: 35.5 µM [inhibitor, partial curve]",
Cc1cc(C(=O)N2CCc3ccccc3C2)on1,"inconclusive: 39.8 µM [inhibitor, single point]",
CN(C)C(=O)CSc1nnc(Cc2ccc3c(c2)OCO3)o1,"inconclusive: 17.8 µM [inhibitor, partial curve, poor fit]",
O=S(=O)(Nc1nccs1)c1ccc(NS(=O)(=O)c2c(F)cc(F)c(Cl)c2F)cc1,"inconclusive: 35.5 µM [inhibitor, partial curve, poor fit]",
O=C(O)/C=C/C(=O)Nc1ccc(O)cc1,"inconclusive: 10 µM [inhibitor, full curve, poor fit]",
COCCn1nnnc1C(C(C)C)N1CCC(Cc2ccccc2)CC1 (configuration not stated),"inconclusive: 20 µM [inhibitor, full curve]",
O=C(Nc1ccc(NC(=O)c2cccc([N+](=O)[O-])c2)cc1)c1cccc([N+](=O)[O-])c1,,inactive: 25.3%
CCOC(=O)C1(NC(=O)C2(NC(=O)CN3C(=O)c4ccccc4C3=O)CCCC2)CCCC1,,inactive: 88.9%
CC1CCN(S(=O)(=O)c2ccc(NC(=O)Cn3nnc(-c4ccccc4)n3)cc2)CC1,"inconclusive: 22.4 µM [inhibitor, partial curve, poor fit]",
O=C(/C=C/c1ccc(-c2ccccc2)cc1)NCc1cccnc1,"inconclusive: 79.4 µM [inhibitor, single point]",
Cc1nc(Cc2nnc(SCC(=O)N3CCN(c4ccc(O)cc4)CC3)o2)cs1,"inconclusive: 50.1 µM [inhibitor, partial curve, poor fit]",
CC1=NN(c2ccccc2)C(=O)/C1=C\c1ccc(Br)s1,"inconclusive: 8.91 µM [inhibitor, full curve, poor fit]",
O=C(CSC1=NCCS1)Nc1ccc(S(=O)(=O)N2CCCCCC2)cc1,"inconclusive: 28.2 µM [inhibitor, single point]",

Structure (SMILES),Potency,"activity, negative = inhibition"
CN(C)CCCN(C(=O)/C=C/c1cccs1)c1nc2ccc(F)cc2s1,"inconclusive: 14.1 µM [inhibitor, partial curve, poor fit]",
Cc1ccc(NC2=Nc3ccccc3N3C2=Nc2c(c(C)nn2-c2ccccc2)C3c2ccc(O)c(O)c2)cc1 (configuration not stated),,inactive: 3.67%
COc1cc2cc3c(N)c(C(=O)Nc4sc(C)c(C)c4C#N)sc3nc2cc1OC,active: 7.94 µM,
COC(=O)c1[nH]c2c(c1C)C(=O)CC(c1cccs1)C2 (configuration not stated),,inactive: 0.362%
O=C(NCc1ccco1)c1cccc(F)c1,"inconclusive: 56.2 µM [inhibitor, partial curve]",
O=C(N/N=C/c1cccc(F)c1)c1cc(-c2ccco2)nc2ccccc12,"inconclusive: 3.55 µM [inhibitor, full curve, poor fit]",
c1coc(Cn2c(-c3ccco3)nc3ccccc32)c1,"inconclusive: 22.4 µM [inhibitor, full curve, poor fit]",
NC(=O)[C@H]1CC2(CC(c3cccc(NC(=O)[C@H]4CCC(=O)N4)c3)=NO2)CN1C(=O)c1ccccc1 (some centres not stated),"inconclusive: 3.55 µM [inhibitor, full curve, poor fit]",
CCC(=O)N1CCCc2ccccc21,"inconclusive: 89.1 µM [inhibitor, single point]",
COc1ccc(C2CC(=O)Nc3c2c(=O)[nH]c2nc4ccccc4n32)cc1 (configuration not stated),,inactive: 2.76%
CCOC(=O)/C(=C/c1c2ccccc2cc2ccccc12)NC(=O)c1ccccc1,"inconclusive: 11.2 µM [inhibitor, partial curve, poor fit]",
CCN1CCN(Cc2ccc(NC(=O)c3cc(NC(=O)N4CCNC4=O)cc(OC)c3)cc2C(F)(F)F)CC1,,inactive: 21.7%
O=C(NCc1ccccn1)C1Nc2ccc(C(F)(F)F)cc2C2C=CCC12 (configuration not stated),"inconclusive: 39.8 µM [inhibitor, single point]",
CC(=O)c1ccc(N2CCN(S(=O)(=O)c3ccc(-c4coc(C)n4)cc3)CC2)cc1,"inconclusive: 89.1 µM [inhibitor, single point]",
COc1ccc(Cc2nn3c(Cn4nnc5ccccc54)nnc3s2)cc1,"inconclusive: 22.4 µM [inhibitor, full curve]",
C[C@]12CCC(O)CC1=CCC1C2CC[C@]2(C)/C(=N\NC(N)=S)CCC12 (some centres not stated),,inactive: 11.9%
Brc1ccc(-c2noc(COc3ccc4c(c3)CCC4)n2)o1,"inconclusive: 31.6 µM [inhibitor, single point]",
CC(C)=CCC1=C(OCC(=O)O)C(=O)c2ccccc2C1=O,"inconclusive: 2.82 µM [inhibitor, partial curve, poor fit]",
O=c1c2cccc(Cl)c2nc2n1Cc1ccccc1-2,,inactive: 27.2%
Cn1c(N)c(N=Cc2ccccc2)c(=O)n(C)c1=O,"inconclusive: 31.6 µM [inhibitor, single point]",
Cc1cc(C)c2c(c1)NC(C(=O)O)C1CC=CC21 (configuration not stated),active: 12.6 µM,
COC(=O)c1c(NC(=O)C2CC=CCC2C(=O)O)sc2c1CCCCC2 (configuration not stated),,inactive: -3.16%
COc1ccc(OC)c(S(=O)(=O)N2Cc3ccccc3CC2C(=O)O)c1 (configuration not stated),,inactive: 14.7%

# Single entries from the entries so far.
# Value for `CC(=O)c1ccc(N2CCN(S(=O)(=O)c3ccc(-c4coc(C)n4)cc3)CC2)cc1` under Potency: inconclusive: 89.1 µM [inhibitor, single point]
# Value for `CCN1CCN(Cc2ccc(NC(=O)c3cc(NC(=O)N4CCNC4=O)cc(OC)c3)cc2C(F)(F)F)CC1` under activity, negative = inhibition: inactive: 21.7%

# (listing goes on)

Structure (SMILES),Potency,"activity, negative = inhibition"
CCCNC(=O)COC(=O)c1c2c(nc3ccccc13)CCC2,active: 25.1 µM,
COc1cc(/C=N/NC(=O)c2cccc(C(=O)N/N=C/c3ccc(O)c(OC)c3)n2)ccc1O,"inconclusive: 1.26 µM [inhibitor, full curve, poor fit]",
CC1=CC2=NC(=O)/C(=C\c3ccc(-c4cccc(Cl)c4)o3)C(=N)N2O1,"inconclusive: 28.2 µM [inhibitor, single point]",
CSCC[C@H](NC(=O)c1ccc(Br)o1)c1nnc2ccccn12,,inactive: 38.7%
Cc1ccc(S(=O)(=O)c2ccc([N+](=O)[O-])cn2)cc1,"inconclusive: 14.1 µM [inhibitor, partial curve, poor fit]",
Cc1cc(C)cc(C(=O)N2CC(=O)Nc3ccccc32)c1,"inconclusive: 89.1 µM [inhibitor, partial curve, poor fit]",
N#Cc1c(N)sc2c1CCCCCC2,,inactive: -8.44%
Cc1ccc(S(=O)(=O)NC(C)(C)CN2CCCCC2)cc1,"inconclusive: 89.1 µM [inhibitor, single point]",
O=c1cc(-c2ccccc2Cl)c2c([nH]1)CCC2,"inconclusive: 50.1 µM [inhibitor, single point]",
Cc1ccccc1CSc1ccc(-c2cccs2)nn1,,inactive: -3.53%
Nn1c(SCC(=O)NC(=O)NCc2ccco2)nnc1-c1ccc(OC(F)F)cc1,"inconclusive: 8.91 µM [inhibitor, full curve, poor fit]",
O=C1Cc2ccccc2C(=O)N1Cc1ccccc1,"inconclusive: 22.4 µM [inhibitor, full curve, poor fit]",
Cc1cc(=O)oc2c(C(=O)/C=C\c3cccs3)c(O)ccc12,"inconclusive: 100 µM [inhibitor, partial curve]",
COCCOC(=O)c1[nH]c2c(c1C)C(=O)CC(c1ccco1)C2 (configuration not stated),,inactive: -79%
C[C@@H]1[C@H]2CCCC[C@H]2CN(C(=O)OC(C)(C)C)[C@@H]1CC(=O)c1ccccc1,"inconclusive: 0.891 µM [inhibitor, full curve, poor fit]",
CCc1ccc(CNC(=O)C2CCCN(S(=O)(=O)c3ccc4c(ccn4C)c3)C2)cc1 (configuration not stated),,inactive: 7.04%
COc1ccc(CNC(=S)Nc2ccccc2)cc1Cl,"inconclusive: 56.2 µM [inhibitor, partial curve, poor fit]",
COc1ccc(CN(CC(=O)NCc2ccc(F)cc2)C(=O)CCC(=O)Nc2nccs2)cc1,"inconclusive: 89.1 µM [inhibitor, single point]",
Cc1ccc(C)c(NS(=O)(=O)c2ccc(OCC(=O)NCc3ccco3)cc2)c1,"inconclusive: 25.1 µM [inhibitor, partial curve, poor fit]",
CC(=O)c1cccc(N=Cc2c(O)c3ccccc3oc2=O)c1,"inconclusive: 79.4 µM [inhibitor, single point]",
Cc1ccc(S(=O)(=O)N2[C@@H](c3cccc(Cl)c3)C(C(=O)O)=CC[C@H]2c2ccc(C(C)C)cc2)cc1,"inconclusive: 56.2 µM [inhibitor, partial curve, poor fit]",

# Retrieved by compound from above:
Structure (SMILES),Potency,"activity, negative = inhibition"
Cc1ccc(S(=O)(=O)NC(C)(C)CN2CCCCC2)cc1,"inconclusive: 89.1 µM [inhibitor, single point]",
Cc1cc(=O)oc2c(C(=O)/C=C\c3cccs3)c(O)ccc12,"inconclusive: 100 µM [inhibitor, partial curve]",
